Measurements: patent publication US8895695B2, “Template-fixed beta-hairpin peptidomimetics with CXCR4 antagonizing activity” (priority 2003, dated 2014)
At least one compound was matched to its structure with a doubt left. Bridge positions count the residues as written; N and C are the ends. Square brackets hold non-standard residues; d marks the D form. Peptide text beside a SMILES is read from it. 2Nal = N[C@@H](Cc1ccc2ccccc2c1)C(=O)O; Cit = NC(=O)NCCC[C@H](N)C(=O)O; Dab = NCC[C@H](N)C(=O)O; Dap = NC[C@H](N)C(=O)O

Chains of the proteins cited; added tags and fusions are not shown.
UniProt P61073, whole entry: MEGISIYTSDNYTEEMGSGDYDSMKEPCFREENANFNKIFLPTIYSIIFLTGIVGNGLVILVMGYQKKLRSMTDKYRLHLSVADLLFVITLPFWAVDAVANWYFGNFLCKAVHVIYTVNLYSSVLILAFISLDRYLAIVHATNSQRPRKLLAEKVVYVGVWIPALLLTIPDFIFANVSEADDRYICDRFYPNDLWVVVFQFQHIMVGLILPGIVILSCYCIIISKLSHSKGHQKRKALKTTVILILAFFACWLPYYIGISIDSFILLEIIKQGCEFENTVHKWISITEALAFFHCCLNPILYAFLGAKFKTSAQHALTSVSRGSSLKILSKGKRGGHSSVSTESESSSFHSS

Target: CXCR4 (Homo sapiens, UniProt P61073)
Test: Ca2+-assay method 2 (Flexstation, SDF-1 induced calcium mobilization)
Type: cell-based
Set-up: expressed in transfected cells; host or cells: mouse pre-B cell line 300-19
Details: method 2 (Ex. 54-160), mouse pre-B cell line 300-19 with human CXCR4, 10 nM SDF-1; read-out: IC50 (nM) Ca^2+ assay
Description: 2.2. Ca^2+-Assay: CXCR4-Antagonizing Activity of the Peptides.
The cells were batch loaded with the Calcium 3 Assay kit (Molecular Devices) in assay buffer (Hanks Balanced salt solution, HBSS, 20 mM HEPES, pH 7.4, 0.1% BSA) for 1 h at room temperature and then 200,000 labeled cells were dispensed into black 96 well assays plates (Costar No. 3603). A 20-fold concentrated solution of peptide in assay buffer was added to the cells and the whole plate was centrifuged to settle the cells to the bottom of the wells. Calcium mobilization induced by 10 nM stromal-derived factor-1 (SDF-1) was measured in the Flexstation 384 (excitation, 485 nM; emission, 525 nM) for 90 seconds. A maximal change in fluorescence response above baseline was used to calculate antagonist activity. The data for dose response curves (antagonist concentration versus % maximum response) were fitted to a four parameter logistic equation using SoftmaxPro 4.6 (Molecular Devices), from which IC50% values were calculated.

Compound `CC[C@H](C)[C@@H]1NC(=O)[C@H](CCCNC(=N)N)NC(=O)[C@H](Cc2ccc(O)cc2)NC(=O)[C@@H]2CCCN2C(=O)[C@H]2CCCN2C(=O)[C@H](CCCCN)NC(=O)[C@H](CCC(N)=O)NC(=O)[C@H](Cc2ccc(O)cc2)NC(=O)[C@@H]2CSSC[C@H](NC1=O)C(=O)N[C@@H](CCCNC(=N)N)C(=O)NCC(=O)N1CCC[C@@H]1C(=O)N[C@@H](CCCNC(=N)N)C(=O)N[C@@H](CCCNC(=N)N)C(=O)N[C@@H](Cc1ccc(O)cc1)C(=O)N2` [Ex. 147] (cyclo(YRICRG[dP]RRYCYQK[dP]P); disulfide 4-11) has an IC50 of 0.17 nM.
With `N=C(N)NCCC[C@@H]1NC(=O)[C@H](CCCNC(=N)N)NC(=O)[C@H]2CCCN2C(=O)CNC(=O)[C@H](CCN)NC(=O)[C@@H]2CSSC[C@H](NC(=O)[C@H](Cc3c[nH]c4ccccc34)NC1=O)C(=O)N[C@@H](Cc1ccc(O)cc1)C(=O)N[C@@H](CCC(N)=O)C(=O)N[C@@H](CCCCN)C(=O)N1CCC[C@@H]1C(=O)N1CCC[C@H]1C(=O)N[C@@H](Cc1ccc(O)cc1)C(=O)N[C@@H](CCCNC(=N)N)C(=O)N[C@@H](CCCNC(N)=O)C(=O)N2` [Ex. 111] (cyclo(YR[Cit]C[Dab]G[dP]RRWCYQK[dP]P); disulfide 4-11) the IC50 was 1.6 nM.
With `C[C@@H](O)[C@@H]1NC(=O)[C@H](Cc2c[nH]cn2)NC(=O)[C@H](Cc2ccc(O)cc2)NC(=O)[C@@H]2CCCN2C(=O)[C@H]2CCCN2C(=O)[C@H](CCCCN)NC(=O)[C@H](CCC(N)=O)NC(=O)[C@H](Cc2ccc(O)cc2)NC(=O)[C@@H]2CSSC[C@H](NC1=O)C(=O)N[C@@H](CCCNC(=N)N)C(=O)NCC(=O)N1CCC[C@@H]1C(=O)N[C@@H](CCCNC(=N)N)C(=O)N[C@@H](CCCNC(=N)N)C(=O)N[C@@H](Cc1c[nH]c3ccccc13)C(=O)N2` [Ex. 120] (cyclo(YHTCRG[dP]RRWCYQK[dP]P); disulfide 4-11) the IC50 was 8.1 nM.
Work on `N=C(N)NCCC[C@@H]1NC(=O)[C@@H]2CSSC[C@H](NC(=O)[C@H](Cc3ccc4ccccc4c3)NC(=O)[C@H](CCCNC(=N)N)NC(=O)[C@H](CCCNC(=N)N)NC(=O)[C@H]3CCCN3C(=O)CNC1=O)C(=O)N[C@@H](Cc1ccc(O)cc1)C(=O)N[C@@H](CCC(N)=O)C(=O)N[C@@H](CCCCN)C(=O)N1CCC[C@@H]1C(=O)N1CCC[C@H]1C(=O)N[C@@H](Cc1ccc(O)cc1)C(=O)N[C@@H](CCCNC(=N)N)C(=O)N[C@@H](CCCNC(N)=O)C(=O)N2` [Ex. 132] (cyclo(RR[2Nal]CYQK[dP]PYR[Cit]CRG[dP]); disulfide 4-13) yielded an IC50 of 1.9 nM.
`N=C(N)NCCC[C@@H]1NC(=O)[C@@H]2CSSC[C@H](NC(=O)[C@H](Cc3ccc4ccccc4c3)NC(=O)[C@H](CCCNC(=N)N)NC(=O)[C@H](CN)NC(=O)[C@H]3CCCN3C(=O)CNC1=O)C(=O)N[C@@H](Cc1ccc(O)cc1)C(=O)N[C@@H](CCCNC(N)=O)C(=O)N[C@@H](CCCCN)C(=O)N1CCC[C@@H]1C(=O)N1CCC[C@H]1C(=O)N[C@@H](Cc1ccc(O)cc1)C(=O)N[C@@H](CCCNC(=N)N)C(=O)N[C@@H](CCCNC(N)=O)C(=O)N2` [Ex. 135] (cyclo(YR[Cit]CRG[dP][Dap]R[2Nal]CY[Cit]K[dP]P); disulfide 4-11) gave an IC50 of 4.7 nM.
